Earlier results on two compounds are cited in patent publication US20230181556A1, “USE OF PSYCHOTROPIC DRUGS FOR THE TREATMENT OF CORONAVIRUS INFECTIONS” (priority 2020, published 2023).

The chains behind the UniProt entries cited, without tags or fusion partners. Residues count along the entry.
UniProt Q9BYF1, 18-805: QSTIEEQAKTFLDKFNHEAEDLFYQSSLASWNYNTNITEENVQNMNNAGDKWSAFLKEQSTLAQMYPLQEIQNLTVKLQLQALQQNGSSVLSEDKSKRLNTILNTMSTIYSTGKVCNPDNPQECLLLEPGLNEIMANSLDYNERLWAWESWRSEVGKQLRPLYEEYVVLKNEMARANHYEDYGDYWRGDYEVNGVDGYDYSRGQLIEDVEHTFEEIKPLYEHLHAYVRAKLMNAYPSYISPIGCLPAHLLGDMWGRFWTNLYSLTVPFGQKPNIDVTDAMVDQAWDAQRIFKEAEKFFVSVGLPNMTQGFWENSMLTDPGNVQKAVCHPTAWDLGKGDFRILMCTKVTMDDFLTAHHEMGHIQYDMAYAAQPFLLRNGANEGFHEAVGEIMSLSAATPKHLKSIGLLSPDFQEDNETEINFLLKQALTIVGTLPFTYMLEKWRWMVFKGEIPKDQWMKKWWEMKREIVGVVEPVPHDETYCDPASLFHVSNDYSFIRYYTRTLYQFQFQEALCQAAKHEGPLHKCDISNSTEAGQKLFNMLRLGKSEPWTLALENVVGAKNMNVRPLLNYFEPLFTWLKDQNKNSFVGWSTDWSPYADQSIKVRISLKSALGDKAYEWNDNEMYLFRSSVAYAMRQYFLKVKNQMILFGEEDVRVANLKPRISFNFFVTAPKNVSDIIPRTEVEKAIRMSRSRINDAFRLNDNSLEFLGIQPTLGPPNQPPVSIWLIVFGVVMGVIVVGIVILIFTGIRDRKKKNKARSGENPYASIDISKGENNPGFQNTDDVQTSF

The subject of data set [1] is viruses as listed per drug. Conditions: virus or effect named in the literature; cited from earlier work.
Data set [2] addresses spike protein-ACE2 interaction (Homo sapiens, UniProt Q9BYF1). The settings on record: Hou et al., Chemico-Biological Interactions 338 (2021) 109420; cited from earlier work.

As to `CN1CCC[C@@H]1CCO[C@](C)(c1ccccc1)c1ccc(Cl)cc1` [Clemastine], the “Examples of published in vitro antiviral activity” value in data set [1] is “SARS-CoV-2”.

As to `Clc1ccc2c(c1)CCc1cccnc1C2=C1CCNCC1` [Desloratadine], the “block of spike protein-ACE2 interaction” value in data set [2] is “efficient to block spike protein-ACE2 interaction”.
